The values below come from article PMC8551806.

Protein sequences, listed by entry. Tags and fused reporters are not part of them. Lines headed by an entry give the natural chain unless they say otherwise; changes in a name come on top.
UniProt A0MES8: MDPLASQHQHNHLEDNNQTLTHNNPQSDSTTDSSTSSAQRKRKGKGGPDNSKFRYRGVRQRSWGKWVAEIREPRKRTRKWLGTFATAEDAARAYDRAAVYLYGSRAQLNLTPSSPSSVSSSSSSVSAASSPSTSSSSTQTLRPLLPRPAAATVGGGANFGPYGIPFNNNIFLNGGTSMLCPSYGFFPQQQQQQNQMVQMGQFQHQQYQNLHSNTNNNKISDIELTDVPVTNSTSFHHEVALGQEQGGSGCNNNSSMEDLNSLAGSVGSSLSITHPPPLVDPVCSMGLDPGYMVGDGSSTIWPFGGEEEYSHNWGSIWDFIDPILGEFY

For at least one entry, the source does not settle the construct or the ends of the probe. At least one verdict rests on a figure or table, not on a statement of the authors.

This data set has as its target ABI4 (AtABI4) (Arabidopsis thaliana (ecotype Col-0)) (UniProt A0MES8). Kind of data set: EMSA. As to conditions: LightShift chemiluminescent EMSA kit (Thermo); pH and temperature not stated; recombinant protein; residues 1-328; protein details: 7xHis (pET32a vector); label: biotin.

For “AATAAAAATCCACCGAACTATTATT (double strand) [Positive control probe (CE1 element of ARR6)]”, the binding result is “binds”.
